No constants are given. Whether binding was seen depends on the method and setting. In cells and extracts the contact can be indirect. Here binding means that the protein was enriched with, or labelled near, the bait; the list need not be complete.
B1: Tco89 (TORC1 subunit) (protein, UniProt O74428 1-451)
chain: MERPSLSRRTSSSTVSTDGEGVYSRSTKERKRNFIVNSRLKRGGGHVRVNRSGRLGSVTMRPSALTRAHSQNPNSSLVNNSSAVSHLTKQRSLNDLHELNGPKHVAKNGLIPLTQRKPNCVWDDAPVDNDSTAGNLDSDSALPTPSVTTNEAADSSRASSPVTRVVAVHDNKKKIINSNISNAPPFNNTDVQASARPPAAGQDDSAADASTTKSSPVHNEVMAEPLPHSNNREVTQATNQPKWQIHSGSDIASEPPTLSRGNSLSLLANRKVPSTNVKKSQAELYDLGSSTSRTQQKLLIQRASSKFDIVEDDMDTNPSKRFSNPHTKHIMDLVRTQYRNVLRTRELIPEFLEKIRSSYSNNQNFDSQNAFNTSAAGTAGTREETISNGQNGIVASAETSKKDDGVQSASLNASMSARSHARQRSIHVPKTRKDTDYESIHQKLLQLWSQG
B2: Psm1 (Smc1 subunit of fission yeast cohesin) (protein, UniProt O94383 1-1228)
chain: MGRLLRLEVENFKSYRGHQIIGPFEDFTSIIGPNGAGKSNLMDAISFVLGVKSSHLRSTNVKELIYRGKILQRDNTDFTDSSNPTTAYVKLMYELDNGEQREYKRAITPSGATEYKIDEEIVTFSEYCGSLQKENILVRARNFLVFQGDVETIASQSPLELSKLVEQISGSLEYKSEYDKSKDEQDKAVNLSAHSFNKKRGINAELRQYQEQKTEAERYQSQKEKRDSAQLVYLLWKLFHLEKSISSNMAEVTRLKADSIQLIERRDENTKEIEKLKEKEGSIRRNLLAFDRKVRKQEKLIASKRPELISIAEKALESKSNLRKIQRKAAEIEKDYSDQASTLQVLENQLTSLSAAEKEFLKDMQEKEQLKGLRLLPEDKEEYEGLRSEADKLNSNLLFKLQTLNRNIKVTSQSKDSLTSIVGDLESKIKSLHESVSSLDTERADLLAKINEKIESLELEKHDQQKKRLTYSELFHKTQELNEELQSCLQKILEASADRNESKQDAKKREALYALKRIYPEVKGRIIDLCTPTQKKYESAIAAALGKNFDAIVVETQAVAKECIDYIKEQRIGIMTFFPMDTIAASPVNQKFRGTHKGARLAIDVLNFESEYERVMISAVGNTLICDSMTVARDLSYNKRLNAKTVTLEGTVIHKTGLITGGSSNNRSAKHWDDHDFDLLTQTKDRLMHQIGEIEYQKSSCVITESDTVKLHSLESEISLLKDKYTVVSRSVEDKKKEIGHYESLIKEKQPHLSELEMELRNFVKSRDELQIQVEKVEEKIFSGFCKRIGISDIHTYDEIHRTFTQSFTQKQLEFTKQKSLLENRISFEKQRVSDTRLRLERMHKFIEKDQESIDNYEQNREALESEVATAEAELELLKEDFASENSKTEKILLAASEKKLVGKRLVSELTKLSGNITLLESEIDRYVSEWHAILRKCKLEDIDVPLREGSLTSIPIDDVSNSGDITMGEEPSEPVINFEKFGVEVDYDELDEELRNDGSESMASVLQEKLREYSEELDQMSPNLRAIERLETVETRLAKLDEEFAAARKAAKNAKERFNAVKQKRLQKFQAAFSHISEQIDPIYKELTKSPAFPLGGTAYLTLDDLDEPYLGGIKFHAMPPMKRFRDMDQLSGGEKTMAALALLFAIHSYQPSPFFVLDEIDAALDQTNVTKIANYIRQHASSGFQFVVISLKNQLFSKSEALVGIYRDQQENSSRTLSINLEGYVE
B3: Toc1 (TORC1 subunit) (protein, UniProt Q9HDW0 1-430)
chain: MQLQSPFGDGISCECLNIRVLGIPNETKHQWIFVPRDLIKIKIYSLLQICKAENCSAVACRGCNLCILAVQGNIEISEEPQKLFQEENVKVYIYDSAISLSSVRASFPISELGIRMDIIKARAEPREDEIRASFSSLVNKEIKRTVEELLLSKRSTNRLSLLAFMRNQQLNYEAYETKLLEDASTIEKSLEKEVKTIYDSNIASPKESSDAIDADHAMIDESRSTQRRKSKPKKHVAFTDEYQVAFSDKPGKYFNQPMQYSKQFKLDNPDYEASSDSLNDIENLSTLTFRSDEELEFDFDTNNINNNKSGDSLEMSTTIPSDEENEDFTSKVDAMEIHSGSLPLNIDSSPIFTNHSPSSSLSSESSFEASPSSFVDRKNRWIQMLKKADEHSRSIQARSMGYVLSDDLDNSKAFRPYKQSFLAQGWKSLN

The chains behind the UniProt entries cited, without tags or fusion partners.
UniProt Q09725: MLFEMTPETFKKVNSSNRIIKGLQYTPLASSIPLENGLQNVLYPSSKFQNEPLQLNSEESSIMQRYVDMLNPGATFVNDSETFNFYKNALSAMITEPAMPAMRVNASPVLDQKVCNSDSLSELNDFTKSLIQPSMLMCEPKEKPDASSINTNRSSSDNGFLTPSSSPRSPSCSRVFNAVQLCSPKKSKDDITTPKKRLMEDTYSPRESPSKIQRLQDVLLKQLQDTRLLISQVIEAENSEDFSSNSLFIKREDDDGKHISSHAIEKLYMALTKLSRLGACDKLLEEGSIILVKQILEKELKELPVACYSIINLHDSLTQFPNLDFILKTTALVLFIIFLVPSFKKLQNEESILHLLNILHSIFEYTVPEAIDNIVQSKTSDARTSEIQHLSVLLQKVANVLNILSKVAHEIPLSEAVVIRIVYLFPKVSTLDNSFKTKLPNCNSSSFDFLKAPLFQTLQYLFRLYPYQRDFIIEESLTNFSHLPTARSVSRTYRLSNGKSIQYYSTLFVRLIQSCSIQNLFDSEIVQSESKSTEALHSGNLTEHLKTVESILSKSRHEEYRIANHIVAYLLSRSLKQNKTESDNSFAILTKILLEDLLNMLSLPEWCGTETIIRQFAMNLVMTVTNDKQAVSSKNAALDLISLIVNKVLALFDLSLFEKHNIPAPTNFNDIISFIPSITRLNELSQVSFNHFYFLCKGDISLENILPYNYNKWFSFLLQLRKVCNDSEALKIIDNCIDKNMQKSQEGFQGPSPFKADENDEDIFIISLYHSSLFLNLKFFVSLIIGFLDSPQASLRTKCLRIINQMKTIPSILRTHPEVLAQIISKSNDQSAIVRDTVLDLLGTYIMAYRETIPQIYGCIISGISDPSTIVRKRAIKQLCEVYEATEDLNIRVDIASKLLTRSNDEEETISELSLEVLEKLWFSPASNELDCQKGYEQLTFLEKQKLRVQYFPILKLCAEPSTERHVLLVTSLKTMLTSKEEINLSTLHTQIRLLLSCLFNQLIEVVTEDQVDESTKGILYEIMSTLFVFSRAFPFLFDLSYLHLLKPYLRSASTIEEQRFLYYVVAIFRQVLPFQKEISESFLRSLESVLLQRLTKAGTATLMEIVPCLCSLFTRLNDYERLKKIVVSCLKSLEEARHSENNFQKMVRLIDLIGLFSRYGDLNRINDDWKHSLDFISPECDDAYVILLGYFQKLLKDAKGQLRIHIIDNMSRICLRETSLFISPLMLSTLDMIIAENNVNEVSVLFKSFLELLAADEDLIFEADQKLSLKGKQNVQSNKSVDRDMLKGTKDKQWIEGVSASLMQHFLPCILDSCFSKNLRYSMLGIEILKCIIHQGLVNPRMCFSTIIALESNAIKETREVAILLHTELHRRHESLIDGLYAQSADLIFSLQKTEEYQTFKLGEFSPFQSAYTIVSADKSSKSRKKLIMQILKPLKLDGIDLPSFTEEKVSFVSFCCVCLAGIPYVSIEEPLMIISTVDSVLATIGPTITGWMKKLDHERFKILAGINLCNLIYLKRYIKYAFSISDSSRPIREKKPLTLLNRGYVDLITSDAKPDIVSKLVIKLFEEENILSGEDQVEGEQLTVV
UniProt P87141: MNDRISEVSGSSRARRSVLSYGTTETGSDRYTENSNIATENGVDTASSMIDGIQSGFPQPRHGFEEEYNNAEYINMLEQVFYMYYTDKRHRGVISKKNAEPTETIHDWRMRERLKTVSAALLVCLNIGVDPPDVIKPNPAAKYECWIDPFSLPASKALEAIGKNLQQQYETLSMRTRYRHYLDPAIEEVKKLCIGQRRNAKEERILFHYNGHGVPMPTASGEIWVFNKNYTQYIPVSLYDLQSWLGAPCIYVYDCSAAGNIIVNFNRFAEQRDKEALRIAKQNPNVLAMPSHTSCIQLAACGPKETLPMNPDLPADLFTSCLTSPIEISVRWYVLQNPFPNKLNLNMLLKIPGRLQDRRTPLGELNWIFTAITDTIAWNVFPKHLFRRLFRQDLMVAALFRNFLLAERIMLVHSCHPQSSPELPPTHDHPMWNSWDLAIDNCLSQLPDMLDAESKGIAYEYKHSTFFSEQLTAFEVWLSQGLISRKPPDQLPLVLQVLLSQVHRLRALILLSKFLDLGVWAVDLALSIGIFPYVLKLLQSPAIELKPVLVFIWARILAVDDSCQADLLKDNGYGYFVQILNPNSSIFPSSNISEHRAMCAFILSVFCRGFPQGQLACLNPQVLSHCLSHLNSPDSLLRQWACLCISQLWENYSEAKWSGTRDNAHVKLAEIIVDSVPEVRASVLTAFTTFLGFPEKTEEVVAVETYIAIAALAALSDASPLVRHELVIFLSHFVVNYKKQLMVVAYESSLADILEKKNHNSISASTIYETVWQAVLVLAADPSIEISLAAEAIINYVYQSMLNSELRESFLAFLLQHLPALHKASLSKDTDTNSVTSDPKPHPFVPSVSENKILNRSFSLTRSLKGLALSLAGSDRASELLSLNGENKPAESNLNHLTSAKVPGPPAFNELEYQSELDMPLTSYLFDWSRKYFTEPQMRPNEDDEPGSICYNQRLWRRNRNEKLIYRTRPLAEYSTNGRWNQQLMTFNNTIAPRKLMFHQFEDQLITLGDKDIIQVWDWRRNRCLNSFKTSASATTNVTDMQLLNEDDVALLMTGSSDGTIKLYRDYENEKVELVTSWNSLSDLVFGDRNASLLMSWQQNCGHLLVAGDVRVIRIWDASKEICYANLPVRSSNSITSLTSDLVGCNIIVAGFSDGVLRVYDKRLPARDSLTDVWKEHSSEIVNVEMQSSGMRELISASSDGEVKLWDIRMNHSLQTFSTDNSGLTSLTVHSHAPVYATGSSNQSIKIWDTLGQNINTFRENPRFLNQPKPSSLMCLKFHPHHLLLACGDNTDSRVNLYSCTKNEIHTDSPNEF
UniProt O74184: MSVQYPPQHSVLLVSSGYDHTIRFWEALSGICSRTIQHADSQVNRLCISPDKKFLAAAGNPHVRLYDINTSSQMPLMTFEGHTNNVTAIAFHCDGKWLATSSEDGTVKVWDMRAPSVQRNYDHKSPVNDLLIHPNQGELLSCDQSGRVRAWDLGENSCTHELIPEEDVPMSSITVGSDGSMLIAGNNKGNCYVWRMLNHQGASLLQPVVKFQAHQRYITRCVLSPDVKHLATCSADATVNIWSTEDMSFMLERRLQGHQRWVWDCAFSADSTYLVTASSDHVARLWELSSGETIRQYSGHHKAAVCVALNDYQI

Columns and labels:
[1] = biological target: T1, Rad21-PK (cohesin kleisin subunit Rad21) (S. pombe) (UniProt P30776); assay: affinity purification with mass spectrometry; Mis4-GFP or Rad21-PK affinity-purified from protein extracts of G1-arrested cells (cdc10-129 arrest), triplicate samples, label-free mass spectrometry; repeated in mip1-R401G and pef1Δ cells
T1 sequence: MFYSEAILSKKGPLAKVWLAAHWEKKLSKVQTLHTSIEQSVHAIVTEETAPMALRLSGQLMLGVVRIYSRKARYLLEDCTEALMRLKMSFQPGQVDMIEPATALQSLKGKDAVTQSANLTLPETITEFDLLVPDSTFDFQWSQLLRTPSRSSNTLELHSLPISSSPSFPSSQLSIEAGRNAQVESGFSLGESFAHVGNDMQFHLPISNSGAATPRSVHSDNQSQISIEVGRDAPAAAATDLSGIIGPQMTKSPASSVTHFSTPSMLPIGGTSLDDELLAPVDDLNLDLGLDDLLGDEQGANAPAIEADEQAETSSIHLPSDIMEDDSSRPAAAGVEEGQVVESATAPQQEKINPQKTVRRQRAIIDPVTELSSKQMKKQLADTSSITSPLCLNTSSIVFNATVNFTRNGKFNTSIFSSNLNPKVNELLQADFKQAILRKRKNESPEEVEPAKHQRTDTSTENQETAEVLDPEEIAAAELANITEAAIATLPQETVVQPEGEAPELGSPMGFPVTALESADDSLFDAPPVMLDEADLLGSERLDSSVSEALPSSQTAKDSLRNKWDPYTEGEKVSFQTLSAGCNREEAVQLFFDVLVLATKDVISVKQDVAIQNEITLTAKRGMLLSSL

[2] = biological target: Mis4-GFP (cohesin loader Mis4) (S. pombe) (UniProt Q09725); assay: as above

Molecule | binding [1] | binding [2]
Mip1, the Raptor equivalent (TORC1 subunit) (from UniProt P87141 1-1313) | binds | binds
Wat1/Pop3, the mLST8 orthologue (TORC1 subunit) (from UniProt O74184 1-314) | binds | binds
B1 | binds | binds
B2 | binds | 
B3 | binds | binds
